Source: publication PMC5587766, “Towards designer organelles by subverting the peroxisomal import pathway” (Nature Communications, 2017)
Results are given in words; binding and its absence hold for the method and conditions named. Tags and fused reporters may be left off the sequences shown.

Target: T1, His6-tagged A. thaliana PEX5 PTS1-binding domain (residues 340-728), wild type (Arabidopsis thaliana) (UniProt Q9FMA3)
T1 sequence: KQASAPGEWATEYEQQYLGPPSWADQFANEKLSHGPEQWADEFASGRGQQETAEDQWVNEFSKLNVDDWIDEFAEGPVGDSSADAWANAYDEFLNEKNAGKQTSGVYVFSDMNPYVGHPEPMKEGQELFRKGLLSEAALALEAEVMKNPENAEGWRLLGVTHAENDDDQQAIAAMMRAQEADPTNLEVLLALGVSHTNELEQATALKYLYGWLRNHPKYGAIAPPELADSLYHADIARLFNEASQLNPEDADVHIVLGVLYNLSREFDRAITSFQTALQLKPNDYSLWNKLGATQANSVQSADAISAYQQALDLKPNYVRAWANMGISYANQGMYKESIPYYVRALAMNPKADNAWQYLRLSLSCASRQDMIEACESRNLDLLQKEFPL
Assay: pull-down; His6-protein (12.5 µM) incubated with the combined dansyl-YQSXX library (500 nM each peptide) in 50 mM Na2HPO4, 300 mM NaCl, 10 mM 2-mercaptoethanol, 15% glycerol, pH 8.0, 4 °C, 1 h; captured on Co-NTA resin, washed, bound peptides eluted with 6 M urea and identified by ESI-LC-MS; semi-quantitative; both purified

Binder: YQSFY (dansyl on the N-terminus; C-terminal CO2H) [dansyl-YQSFY]
- binding: no binding (tested: 500 nM each peptide, 12.5 µM protein)
